# Reference: PubChem BioAssay (NCATS)
# Inconclusive results, whose numbers are uncertain, are shown with a selection of clear calls. For some of these results: A potency beside an inconclusive call is a rough fit, not a confirmed value. The source made the active and inactive calls. The call rests on the fitted dose curve; in most records, active means well fitted curve in the direction sought with a large enough effect; inconclusive means small, poorly fitted or top-dose-only effect, or another doubt; inactive means no such curve, though single readings can be large; an effect the other way counts as inactive or inconclusive.
# What was measured:
# [1] = qHTS of pediatric cancer cell lines to identify multiple opportunities for drug repurposing: Confirmatory screen for TC32 cells (AID 1347118);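 further: cells exposed to compound for 48 h before the read; nearly all actives have a fitted effect of over 65% in size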; further: potency means the concentration at half of the fitted maximal effect; on activity change, negative = cytotoxicity: on the % scale 0 is the no-effect control and ±100 the full control effect
# Method in brief: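 TC32 cells, 500-1,000/well in growth medium, compound-treated 48 h at 37 °C; viability from CellTiter-Glo luminescence. Primary screen: MIPE 11-point (0.78 nM–46 µM final), NPC 8-point (0.59 nM–46 µM final); confirmatory at 11-point dilutions.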
# [2] = qHTS of pediatric cancer cell lines to identify multiple opportunities for drug repurposing: Confirmatory screen for Rh18 cells (AID 1347125); conditions: Rh18 rhabdomyosarcoma cells, viability; activity change, negative = cytotoxic: at 45.9 µM (top of the series); further: nearly all actives have a fitted effect of over 55% in size; further: potency means the concentration at half of the fitted maximal effect; on activity change, negative = cytotoxic: on the % scale 0 is the no-effect control and ±100 the full control effect
# Method in brief: (§1)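 Cells (500-1,000/well) in growth media were settled 5 h at 37 degrees C, then given compounds for 48 h. Viability was read as CellTiter-Glo luminescence. Primary runs used MIPE at 11 points (0.78 nM-46 µM) and NPC at 8 points (0.59 nM-46 µM); follow-ups used 11 points.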
# [3] = qHTS of pediatric cancer cell lines to identify multiple opportunities for drug repurposing: Confirmatory screen for Rh30 cells (AID 1347126); further: nearly all actives have a fitted effect of over 55% in size; further: potency means the concentration at half of the fitted maximal effect; on activity change, negative = cytotoxic: on the % scale 0 is the no-effect control and ±100 the full control effect
# Method in brief: as §1
# [4] = qHTS of pediatric cancer cell lines to identify multiple opportunities for drug repurposing: Confirmatory screen for control Hh wild type fibroblast cells (AID 1347121); further: nearly all actives have a fitted effect of over 70% in size; further: potency means the concentration at half of the fitted maximal effect
# Method in brief: as §1
# [5] = qHTS of pediatric cancer cell lines to identify multiple opportunities for drug repurposing: Confirmatory screen for U-2 OS cells (AID 1347122);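 further: plate controls were DMSO for no effect and bortezomib for full effect; nearly all actives have a fitted effect of over 65% in size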
# Method in brief: as §1
# [6] = qHTS of pediatric cancer cell lines to identify multiple opportunities for drug repurposing: Confirmatory screen for Rh41 cells (AID 1347123);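 further: potency means the concentration at half of the fitted maximal effect; 48 h compound exposure; nearly all actives have a fitted effect of over 60% in size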
# Method in brief: as §1
# [7] = qHTS of pediatric cancer cell lines to identify multiple opportunities for drug repurposing: Confirmatory screen for RD cells (AID 1347124); conditions: RD rhabdomyosarcoma cell viability; activity change, negative = cytotoxic: at 45.9 µM (top of the series);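 further: cells exposed to compound for 48 h before viability readout; nearly all actives have a fitted effect of over 65% in size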; further: potency means the concentration at half of the fitted maximal effect; on activity change, negative = cytotoxic: on the % scale 0 is the no-effect control and ±100 the full control effect
# Method in brief: as §1
# [8] = qHTS of pediatric cancer cell lines to identify multiple opportunities for drug repurposing: Confirmatory screen for Saos-2 cells (AID 1347127); further: nearly all actives have a fitted effect of over 60% in size; further: potency means the concentration at half of the fitted maximal effect;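 on activity change, negative = cytotoxic: plate controls were DMSO for no effect and bortezomib for full effect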
# Method in brief: as §1
# [9] = qHTS of pediatric cancer cell lines to identify multiple opportunities for drug repurposing: Confirmatory screen for MG 63 (6-TG R) cells (AID 1347119); conditions: MG-63 (6-TG resistant) osteosarcoma viability; activity change, negative = cytotoxicity: at 45.9 µM (top of the series);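 further: plate controls were DMSO neutral control for no effect and bortezomib for full effect; nearly all actives have a fitted effect of over 55% in size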
# Method in brief: as §1
structure (smiles),measurement,setting,value
CNNCc1ccc(C(=O)NC(C)C)cc1,Potency,[1],"inconclusive: 32.9 µM [cytotoxic, single point]"
same,Potency,[2],"inconclusive: 0.0026 µM [rising, full curve, poor fit]"
same,Potency,[3],inactive
CCCCCCC[N+](CC)(CC)CCCCc1ccc(Cl)cc1,Potency,[1],"inconclusive: 18.5 µM [cytotoxic, partial curve, poor fit]"
same,Potency,[4],active: 9.27 µM
same,Potency,[5],inactive
same,Potency,[6],"inconclusive: 1.47 µM [cytotoxic, full curve, poor fit]"
same,Potency,[2],active: 13.1 µM
CC1(C)O[C@@H]2C[C@H]3[C@@H]4C[C@H](F)C5=CC(=O)CC[C@]5(C)[C@H]4[C@@H](O)C[C@]3(C)[C@]2(C(=O)CO)O1,Potency,[1],"inconclusive: 18.5 µM [cytotoxic, single point]"
same,Potency,[4],inactive
same,Potency,[7],inactive
same,Potency,[3],"inconclusive: 23.3 µM [cytotoxic, single point]"
CN1CC[C@@H](c2c(O)cc(O)c3c(=O)cc(-c4ccccc4Cl)oc23)[C@@H](O)C1,Potency,[1],"inconclusive: 0.585 µM [cytotoxic, full curve, poor fit]"
same,Potency,[6],active: 0.369 µM
same,Potency,[7],active: 0.737 µM
same,Potency,[3],active: 0.369 µM
same,Potency,[8],active: 0.522 µM
C[C@@H]1C[C@H]2[C@@H]3CCC4=CC(=O)C=C[C@]4(C)[C@@]3(F)[C@@H](O)C[C@]2(C)[C@H]1C(=O)CO,Potency,[1],inactive
same,Potency,[4],inactive
same,Potency,[6],"inconclusive: 18.5 µM [cytotoxic, partial curve]"
same,Potency,[2],inactive
same,Potency,[3],inactive
CC(=O)OCC(=O)[C@@]12OC(C)(C)O[C@@H]1C[C@H]1[C@@H]3C[C@H](F)C4=CC(=O)C=C[C@]4(C)[C@@]3(F)[C@@H](O)C[C@@]12C,Potency,[1],inactive
same,Potency,[4],"inconclusive: 0.0131 µM [rising, full curve, poor fit]"
same,Potency,[2],inactive
same,Potency,[8],"inconclusive: 36.9 µM [cytotoxic, single point]"
CN(C)CCN(C)C(=O)c1ccc(NC(=O)Nc2ccc(-c3nc(N4CCOCC4)c4ccn(CC(F)(F)F)c4n3)cc2)cc1,Potency,[1],"inconclusive: 0.233 µM [cytotoxic, full curve, poor fit]"
same,Potency,[4],"inconclusive: 0.293 µM [cytotoxic, full curve, poor fit]"
same,Potency,[8],"inconclusive: 0.657 µM [cytotoxic, full curve, poor fit]"
CCN(CC)CCCC(C)Nc1ccnc2cc(Cl)ccc12 (stereo not given),Potency,[1],inactive
same,Potency,[7],inactive
same,Potency,[3],inactive
COc1cccc2c(NCc3ccccc3)nc(-n3c(N)nc4ccccc43)nc12,Potency,[1],active: 7.37 µM
same,Potency,[4],active: 9.27 µM
same,Potency,[7],"inconclusive: 1.31 µM [cytotoxic, full curve, poor fit]"
same,Potency,[2],"inconclusive: 36.9 µM [cytotoxic, single point]"
same,Potency,[3],active: 0.0465 µM
Nc1ccn([C@@H]2O[C@H](CO)[C@@H](O)C2O)c(=O)n1 (stereo not given in full),Potency,[1],"inconclusive: 29.3 µM [cytotoxic, single point]"
same,Potency,[7],inactive
same,Potency,[2],"inconclusive: 0.117 µM [rising, partial curve, poor fit]"
CO[C@@H]1[C@@H](O)[C@H](O)[C@@H](n2c3c(Cl)cccc3c3c4c(c5c6cccc(Cl)c6[nH]c5c32)C(=O)NC4=O)O[C@@H]1CO,Potency,[1],active: 0.737 µM
same,Potency,[7],"inconclusive: 5.22 µM [cytotoxic, full curve, poor fit]"
same,Potency,[2],active: 6.57 µM
same,Potency,[8],"inconclusive: 2.61 µM [cytotoxic, full curve]"
C[C@@H]1C[C@H]2[C@@H]3CCC4=CC(=O)C=C[C@]4(C)[C@@]3(F)[C@@H](O)C[C@]2(C)[C@@]1(O)C(=O)CO,Potency,[1],"inconclusive: 36.9 µM [cytotoxic, single point]"
same,Potency,[9],inactive
same,"activity change, negative = cytotoxic",[2],inconclusive: -30.2% [cytotoxic]
same,Potency,[8],inactive
CC(C(=O)O)c1ccc2c(c1)CC(=O)c1ccccc1S2 (stereo not given),Potency,[1],"inconclusive: 13.1 µM [cytotoxic, partial curve, poor fit]"
same,Potency,[7],inactive
same,Potency,[3],inactive
CC(C)c1nn(-c2c(Cl)cccc2Cl)c2nc(Cc3ccc(OCCO)cc3)[nH]c(=O)c12,Potency,[1],active: 0.131 µM
same,Potency,[4],"inconclusive: 6.57 µM [rising, partial curve, poor fit]"
same,Potency,[2],"inconclusive: 0.0737 µM [cytotoxic, full curve]"
same,Potency,[3],"inconclusive: 36.9 µM [cytotoxic, single point]"

# Rewritten bar-delimited: entries from further up.
structure (smiles) | measurement | setting | value
CC(=O)OCC(=O)[C@@]12OC(C)(C)O[C@@H]1C[C@H]1[C@@H]3C[C@H](F)C4=CC(=O)C=C[C@]4(C)[C@@]3(F)[C@@H](O)C[C@@]12C | Potency | [8] | inconclusive: 36.9 µM [cytotoxic, single point]
CN(C)CCN(C)C(=O)c1ccc(NC(=O)Nc2ccc(-c3nc(N4CCOCC4)c4ccn(CC(F)(F)F)c4n3)cc2)cc1 | Potency | [1] | inconclusive: 0.233 µM [cytotoxic, full curve, poor fit]
same | Potency | [4] | inconclusive: 0.293 µM [cytotoxic, full curve, poor fit]
